# Results published in publication doi:10.1101/2019.12.18.867333.
# Sequences of proteins named here, by UniProt entry; tags and fusion partners are left off. A change or cut given only in a name is not applied to a line headed by its entry.
# UniProt P51149, whole entry: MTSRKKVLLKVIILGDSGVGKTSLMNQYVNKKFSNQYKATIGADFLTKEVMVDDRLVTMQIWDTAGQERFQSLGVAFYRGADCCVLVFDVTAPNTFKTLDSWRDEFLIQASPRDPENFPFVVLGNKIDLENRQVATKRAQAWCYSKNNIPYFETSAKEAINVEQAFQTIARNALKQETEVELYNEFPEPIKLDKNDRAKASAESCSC
# UniProt Q9NVJ2, whole entry: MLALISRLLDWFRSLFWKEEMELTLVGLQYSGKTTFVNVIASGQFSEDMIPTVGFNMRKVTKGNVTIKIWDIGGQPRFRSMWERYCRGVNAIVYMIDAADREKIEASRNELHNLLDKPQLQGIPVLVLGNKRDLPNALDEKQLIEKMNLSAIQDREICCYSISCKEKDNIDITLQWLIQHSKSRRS
# No constants are given. Whether binding was seen depends on the method and setting. In cells and extracts the contact can be indirect. Some results given as binding are weak or reduced against the parent protein; the word gives no strength. Sequences can lack the tags named with a protein.
# T1: FLAG-VPS18 (UniProt Q9P253)
# T1 sequence: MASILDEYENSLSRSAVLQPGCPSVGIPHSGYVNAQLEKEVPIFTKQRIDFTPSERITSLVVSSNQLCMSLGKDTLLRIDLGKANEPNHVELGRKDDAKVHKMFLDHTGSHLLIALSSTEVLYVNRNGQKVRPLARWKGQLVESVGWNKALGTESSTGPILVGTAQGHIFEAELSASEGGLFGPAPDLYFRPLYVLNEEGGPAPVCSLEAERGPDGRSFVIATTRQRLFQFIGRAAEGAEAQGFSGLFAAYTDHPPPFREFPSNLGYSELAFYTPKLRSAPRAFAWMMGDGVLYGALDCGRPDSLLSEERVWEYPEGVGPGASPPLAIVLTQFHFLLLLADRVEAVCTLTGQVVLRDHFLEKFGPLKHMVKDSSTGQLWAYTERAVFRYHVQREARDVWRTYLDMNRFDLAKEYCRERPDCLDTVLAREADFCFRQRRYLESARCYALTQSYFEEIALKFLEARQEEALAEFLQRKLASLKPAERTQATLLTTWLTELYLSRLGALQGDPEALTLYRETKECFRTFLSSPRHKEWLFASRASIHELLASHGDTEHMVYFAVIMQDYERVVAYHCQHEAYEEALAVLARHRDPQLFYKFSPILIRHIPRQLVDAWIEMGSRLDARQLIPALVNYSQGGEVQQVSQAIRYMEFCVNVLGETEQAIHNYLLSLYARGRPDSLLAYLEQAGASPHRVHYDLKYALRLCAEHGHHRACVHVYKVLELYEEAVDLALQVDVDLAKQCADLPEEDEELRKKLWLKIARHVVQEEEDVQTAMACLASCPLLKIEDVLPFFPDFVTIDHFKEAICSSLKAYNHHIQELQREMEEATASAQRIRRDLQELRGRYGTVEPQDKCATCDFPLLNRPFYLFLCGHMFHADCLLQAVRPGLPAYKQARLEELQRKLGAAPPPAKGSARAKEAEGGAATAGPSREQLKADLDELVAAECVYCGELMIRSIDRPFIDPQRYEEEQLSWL
# T2: HA-VPS33A (UniProt Q96AX1)
# T2 sequence: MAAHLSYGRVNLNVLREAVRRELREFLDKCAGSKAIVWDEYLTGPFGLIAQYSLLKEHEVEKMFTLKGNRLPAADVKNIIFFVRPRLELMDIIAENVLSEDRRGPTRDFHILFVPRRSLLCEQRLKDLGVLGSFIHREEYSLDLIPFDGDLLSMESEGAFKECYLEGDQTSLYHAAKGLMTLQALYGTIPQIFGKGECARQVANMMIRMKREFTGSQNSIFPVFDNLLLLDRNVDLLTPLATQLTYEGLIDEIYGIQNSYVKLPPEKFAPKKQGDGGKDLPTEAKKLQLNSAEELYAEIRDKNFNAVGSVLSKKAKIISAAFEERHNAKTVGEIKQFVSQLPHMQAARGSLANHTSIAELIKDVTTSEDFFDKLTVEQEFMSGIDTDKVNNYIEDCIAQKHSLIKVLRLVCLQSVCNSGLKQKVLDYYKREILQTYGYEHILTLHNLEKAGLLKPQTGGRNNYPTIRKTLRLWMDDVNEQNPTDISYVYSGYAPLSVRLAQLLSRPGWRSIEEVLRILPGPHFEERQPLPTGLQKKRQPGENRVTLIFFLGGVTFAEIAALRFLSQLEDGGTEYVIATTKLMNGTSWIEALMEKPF
# What was measured:
# Assay in all cases: co-IP
# FLAG-VPS18 = molecular target: T1, FLAG-VPS18
# HA-VPS33A = molecular target: T2, HA-VPS33A
# FLAG-RAB7 = FLAG-RAB7 (UniProt P51149)
# GFP-Arl8b = GFP-Arl8b (UniProt Q9NVJ2)
Binder,binding (FLAG-VPS18),binding (HA-VPS33A),binding (FLAG-RAB7),binding (GFP-Arl8b)
"GFP-VPS41^WT (protein, UniProt P49754-1 1-854) MAEAEEQETGSLEESTDESEEEESEEEPKLKYERLSNGVTEILQKDAASCMTVHDKFLALGTHYGKVYLLDVQGNITQKFDVSPVKINQISLDESGEHMGVCSEDGKVQVFGLYSGEEFHETFDCPIKIIAVHPHFVRSSCKQFVTGGKKLLLFERSWMNRWKSAVLHEGEGNIRSVKWRGHLIAWANNMGVKIFDIISKQRITNVPRDDISLRPDMYPCSLCWKDNVTLIIGWGTSVKVCSVKERHASEMRDLPSRYVEIVSQFETEFYISGLAPLCDQLVVLSYVKEISEKTEREYCARPRLDIIQPLSETCEEISSDALTVRGFQENECRDYHLEYSEGESLFYIVSPRDVVVAKERDQDDHIDWLLEKKKYEEALMAAEISQKNIKRHKILDIGLAYINHLVERGDYDIAARKCQKILGKNAALWEYEVYKFKEIGQLKAISPYLPRGDPVLKPLIYEMILHEFLESDYEGFATLIREWPGDLYNNSVIVQAVRDHLKKDSQNKTLLKTLAELYTYDKNYGNALEIYLTLRHKDVFQLIHKHNLFSSIKDKIVLLMDFDSEKAVDMLLDNEDKISIKKVVEELEDRPELQHVYLHKLFKRDHHKGQRYHEKQISLYAEYDRPNLLPFLRDSTHCPLEKALEICQQRNFVEETVYLLSRMGNSRSALKMIMEELHDVDKAIEFAKEQDDGELWEDLILYSIDKPPFITGLLNNIGTHVDPILLIHRIKEGMEIPNLRDSLVKILQDYNLQILLREGCKKILVADSLSLLKKMHRTQMKGVLVDEENICESCLSPILPSDAAKPFSVVVFHCRHMFHKECLPMPSMNSAAQFCNICSAKNRGPGSAILEMKK",binds,binds,–,–
"VPS41^S285P-APEX2-V5 (protein, UniProt P49754-1 1-854) MAEAEEQETGSLEESTDESEEEESEEEPKLKYERLSNGVTEILQKDAASCMTVHDKFLALGTHYGKVYLLDVQGNITQKFDVSPVKINQISLDESGEHMGVCSEDGKVQVFGLYSGEEFHETFDCPIKIIAVHPHFVRSSCKQFVTGGKKLLLFERSWMNRWKSAVLHEGEGNIRSVKWRGHLIAWANNMGVKIFDIISKQRITNVPRDDISLRPDMYPCSLCWKDNVTLIIGWGTSVKVCSVKERHASEMRDLPSRYVEIVSQFETEFYISGLAPLCDQLVVLPYVKEISEKTEREYCARPRLDIIQPLSETCEEISSDALTVRGFQENECRDYHLEYSEGESLFYIVSPRDVVVAKERDQDDHIDWLLEKKKYEEALMAAEISQKNIKRHKILDIGLAYINHLVERGDYDIAARKCQKILGKNAALWEYEVYKFKEIGQLKAISPYLPRGDPVLKPLIYEMILHEFLESDYEGFATLIREWPGDLYNNSVIVQAVRDHLKKDSQNKTLLKTLAELYTYDKNYGNALEIYLTLRHKDVFQLIHKHNLFSSIKDKIVLLMDFDSEKAVDMLLDNEDKISIKKVVEELEDRPELQHVYLHKLFKRDHHKGQRYHEKQISLYAEYDRPNLLPFLRDSTHCPLEKALEICQQRNFVEETVYLLSRMGNSRSALKMIMEELHDVDKAIEFAKEQDDGELWEDLILYSIDKPPFITGLLNNIGTHVDPILLIHRIKEGMEIPNLRDSLVKILQDYNLQILLREGCKKILVADSLSLLKKMHRTQMKGVLVDEENICESCLSPILPSDAAKPFSVVVFHCRHMFHKECLPMPSMNSAAQFCNICSAKNRGPGSAILEMKK",–,–,binds,binds
"VPS41^R662*-APEX2-V5 (domain or fragment, UniProt P49754-1 1-661) MAEAEEQETGSLEESTDESEEEESEEEPKLKYERLSNGVTEILQKDAASCMTVHDKFLALGTHYGKVYLLDVQGNITQKFDVSPVKINQISLDESGEHMGVCSEDGKVQVFGLYSGEEFHETFDCPIKIIAVHPHFVRSSCKQFVTGGKKLLLFERSWMNRWKSAVLHEGEGNIRSVKWRGHLIAWANNMGVKIFDIISKQRITNVPRDDISLRPDMYPCSLCWKDNVTLIIGWGTSVKVCSVKERHASEMRDLPSRYVEIVSQFETEFYISGLAPLCDQLVVLSYVKEISEKTEREYCARPRLDIIQPLSETCEEISSDALTVRGFQENECRDYHLEYSEGESLFYIVSPRDVVVAKERDQDDHIDWLLEKKKYEEALMAAEISQKNIKRHKILDIGLAYINHLVERGDYDIAARKCQKILGKNAALWEYEVYKFKEIGQLKAISPYLPRGDPVLKPLIYEMILHEFLESDYEGFATLIREWPGDLYNNSVIVQAVRDHLKKDSQNKTLLKTLAELYTYDKNYGNALEIYLTLRHKDVFQLIHKHNLFSSIKDKIVLLMDFDSEKAVDMLLDNEDKISIKKVVEELEDRPELQHVYLHKLFKRDHHKGQRYHEKQISLYAEYDRPNLLPFLRDSTHCPLEKALEICQQRNFVEETVYLLS",–,–,binds,binds
"GFP-VPS41^S285P (protein, UniProt P49754-1 1-854) MAEAEEQETGSLEESTDESEEEESEEEPKLKYERLSNGVTEILQKDAASCMTVHDKFLALGTHYGKVYLLDVQGNITQKFDVSPVKINQISLDESGEHMGVCSEDGKVQVFGLYSGEEFHETFDCPIKIIAVHPHFVRSSCKQFVTGGKKLLLFERSWMNRWKSAVLHEGEGNIRSVKWRGHLIAWANNMGVKIFDIISKQRITNVPRDDISLRPDMYPCSLCWKDNVTLIIGWGTSVKVCSVKERHASEMRDLPSRYVEIVSQFETEFYISGLAPLCDQLVVLPYVKEISEKTEREYCARPRLDIIQPLSETCEEISSDALTVRGFQENECRDYHLEYSEGESLFYIVSPRDVVVAKERDQDDHIDWLLEKKKYEEALMAAEISQKNIKRHKILDIGLAYINHLVERGDYDIAARKCQKILGKNAALWEYEVYKFKEIGQLKAISPYLPRGDPVLKPLIYEMILHEFLESDYEGFATLIREWPGDLYNNSVIVQAVRDHLKKDSQNKTLLKTLAELYTYDKNYGNALEIYLTLRHKDVFQLIHKHNLFSSIKDKIVLLMDFDSEKAVDMLLDNEDKISIKKVVEELEDRPELQHVYLHKLFKRDHHKGQRYHEKQISLYAEYDRPNLLPFLRDSTHCPLEKALEICQQRNFVEETVYLLSRMGNSRSALKMIMEELHDVDKAIEFAKEQDDGELWEDLILYSIDKPPFITGLLNNIGTHVDPILLIHRIKEGMEIPNLRDSLVKILQDYNLQILLREGCKKILVADSLSLLKKMHRTQMKGVLVDEENICESCLSPILPSDAAKPFSVVVFHCRHMFHKECLPMPSMNSAAQFCNICSAKNRGPGSAILEMKK",binds,binds,–,–
"VPS41^WT-APEX2-V5 (protein, UniProt P49754-1 1-854) MAEAEEQETGSLEESTDESEEEESEEEPKLKYERLSNGVTEILQKDAASCMTVHDKFLALGTHYGKVYLLDVQGNITQKFDVSPVKINQISLDESGEHMGVCSEDGKVQVFGLYSGEEFHETFDCPIKIIAVHPHFVRSSCKQFVTGGKKLLLFERSWMNRWKSAVLHEGEGNIRSVKWRGHLIAWANNMGVKIFDIISKQRITNVPRDDISLRPDMYPCSLCWKDNVTLIIGWGTSVKVCSVKERHASEMRDLPSRYVEIVSQFETEFYISGLAPLCDQLVVLSYVKEISEKTEREYCARPRLDIIQPLSETCEEISSDALTVRGFQENECRDYHLEYSEGESLFYIVSPRDVVVAKERDQDDHIDWLLEKKKYEEALMAAEISQKNIKRHKILDIGLAYINHLVERGDYDIAARKCQKILGKNAALWEYEVYKFKEIGQLKAISPYLPRGDPVLKPLIYEMILHEFLESDYEGFATLIREWPGDLYNNSVIVQAVRDHLKKDSQNKTLLKTLAELYTYDKNYGNALEIYLTLRHKDVFQLIHKHNLFSSIKDKIVLLMDFDSEKAVDMLLDNEDKISIKKVVEELEDRPELQHVYLHKLFKRDHHKGQRYHEKQISLYAEYDRPNLLPFLRDSTHCPLEKALEICQQRNFVEETVYLLSRMGNSRSALKMIMEELHDVDKAIEFAKEQDDGELWEDLILYSIDKPPFITGLLNNIGTHVDPILLIHRIKEGMEIPNLRDSLVKILQDYNLQILLREGCKKILVADSLSLLKKMHRTQMKGVLVDEENICESCLSPILPSDAAKPFSVVVFHCRHMFHKECLPMPSMNSAAQFCNICSAKNRGPGSAILEMKK",–,–,–,binds
